Experimental findings from PMC3846258 (ACS chemical biology, 2013) are described below.

Each structure is given as a SMILES string.

This assay addresses BRDT (first bromodomain) (Homo sapiens, UniProt Q58F21). The experiment in a line: X-ray co-crystal structure, […] Å. In kind it is binding.

In general, Kd refers to a measure of binding affinity in units of concentration. Take `CCc1cnn2c(NCc3ccc[n+]([O-])c3)cc(N3CCCC[C@H]3CCO)nc12` [dinaciclib]: binding was characterised by a dissociation constant (Kd) of 37 µM.
